Experimental data from the supplement of paper PMC9578143, “Small-Molecule Ebselen Binds to YTHDF Proteins Interfering with the Recognition of N^6-Methyladenosine-Modified RNAs” (ACS Pharmacology & Translational Science, 2022).
The other results are listed elsewhere or left out. Plates or batches differ in their baseline, so values are only roughly comparable.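 Hits were defined as a z-score below −3.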

Target: T1, YTHDF1 YTH domain (aa 365-554) (UniProt Q9BYJ9)
T1 sequence (whole entry): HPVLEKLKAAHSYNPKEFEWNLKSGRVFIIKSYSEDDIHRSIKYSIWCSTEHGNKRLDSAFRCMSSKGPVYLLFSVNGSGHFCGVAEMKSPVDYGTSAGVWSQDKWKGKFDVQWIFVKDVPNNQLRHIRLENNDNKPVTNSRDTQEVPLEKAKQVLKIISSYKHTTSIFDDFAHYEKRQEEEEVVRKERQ
Experiment: tryptophan fluorescence intensity z-score (mean); higher = higher fluorescence, less quenching (negative = binding / quenching)
Settings: 10 µM

Row | Structure (SMILES) | tryptophan fluorescence intensity z-score
1 | N#C/C(=C\c1ccc(O)cc1)C(=O)O [alpha-CYANO-4-HYDROXYCINNAMICACID] (plate: M 23-24) | inactive: -0.26
2 | CC1=C(O)C(=O)C=C2C1=CC=C1[C@@]2(C)CC[C@@]2(C)[C@@H]3C[C@](C)(C(=O)O)CC[C@]3(C)CC[C@]12C (plate: M 15-16) | inactive: 0.156
3 | Oc1cccc2cccnc12 (plate: M 3-4) | inactive: 0.0016
4 | Cc1ncc(CNC(=O)N(CCCl)N=O)c(N)n1 (plate: M 23-24) | inactive: 0.0577
5 | CCC12C=CCN3CC[C@@]4(c5ccc(OC)cc5N(C)[C@H]4[C@@](O)(C(=O)OC)[C@@H]1OC(C)=O)[C@@H]32 (stereo partly specified) (plate: M 19-20) | inactive: 0.589
6 | CN1CCCCC1c1ccc(-c2cccnc2)nc1 (stereo unspecified) (plate: M 19-20) | inactive: 0.467
7 | CCCCCCCCCc1ccc(O)cc1 (plate: M 21-22) | inactive: 0.371
8 | CNc1ccc(C(=O)CC(O)CCC(C)C2OC(=O)CC(O)CC(=O)CC(O)CC(O)CC(O)CC(O)CC3(O)CC(O)C(C(=O)OC)C(CC(O[C@@H]4O[C@H](C)[C@@H](O)[C@H](N)[C@@H]4O)/C=C/C=C/C=C/C=C/C=C/C=C/C=C/C2C)O3)cc1.COC(=O)C1C(O)CC2(O)CC(O)CC(O)CC(O)CC(O)CC(=O)CC(O)CC(=O)OC(C(C)CCC(O)CC(=O)c3ccc(N)cc3)C(C)/C=C/C=C/C=C/C=C/C=C/C=C/C=C/C(O[C@@H]3O[C@H](C)[C@@H](O)[C@H](N)[C@@H]3O)CC1O2 (stereo partly specified) (plate: M 13-14) | inactive: 0.309
9 | CC[C@@]1(O)C(=O)OCc2c1cc1n(c2=O)Cc2cc3ccccc3nc2-1 (plate: M 19-20) | inactive: 0.181
10 | O=C1C[C@@H]2OCC=C3CN4CC[C@]56c7ccccc7N1[C@H]5[C@H]2[C@H]3C[C@H]46 (plate: M 5-6) | inactive: -0.183
11 | N#Cc1nn(-c2c(Cl)cc(C(F)(F)F)cc2Cl)c(N)c1[S+]([O-])C(F)(F)F (stereo unspecified) (plate: M 11-12) | inactive: -0.742
12 | NCCc1cc(O)c(O)cc1O (plate: M 3-4) | inactive: -0.72
13 | CC(C)=CCC[C@]1(C)C=Cc2c(O)c3c(c(CC=C(C)C)c2O1)O[C@]12C(=C[C@@H]4C[C@H]1C(C)(C)O[C@@]2(C/C=C(/C)C(=O)O)C4=O)C3=O (plate: M 15-16) | inactive: -1.35
14 | C#CCOS(=O)OC1CCCCC1Oc1ccc(C(C)(C)C)cc1 (stereo unspecified) (plate: M 21-22) | inactive: 0.335
15 | C=C(C)c1cc2cc(C(C)=O)c(O)cc2o1 (plate: M 17-18) | inactive: 0.43
16 | Cc1cc(OC(=O)N2CCCCC2)c(C(C)C)cc1[N+](C)(C)C (plate: M 23-24) | inactive: -0.241
17 | c1ccc2nc(N3CCNCC3)ccc2c1 (plate: M 9-10) | inactive: -0.0769
18 | C[N+](C)(C)CCCCCCCCCC[N+](C)(C)C (plate: M 13-14) | inactive: 0.642

Row | Structure (SMILES) | tryptophan fluorescence intensity z-score
19 | C[N+]1(C)[C@@H]2CC[C@H]1C[C@@H](OC(=O)C(CO)c1ccccc1)C2 (stereo partly specified) (plate: M 11-12) | inactive: 0.6
20 | C[C@H]1CC[C@@]2(NC1)O[C@H]1C[C@H]3[C@@H]4CC[C@H]5C[C@@H](O)CC[C@]5(C)[C@H]4CC[C@]3(C)[C@H]1[C@@H]2C (plate: M 13-14) | inactive: 0.621
21 | CN1C[C@H](C(=O)N[C@]2(C)O[C@@]3(O)[C@@H]4CCCN4C(=O)[C@H](Cc4ccccc4)N3C2=O)C[C@@H]2c3cccc4[nH]cc(c34)C[C@H]21 (plate: M 1-2) | inactive: -0.159
22 | COc1cccc(C2(O)CCCCC2CN(C)C)c1 (stereo unspecified) (plate: M 11-12) | inactive: -0.242
23 | CC(CCc1ccccc1)NC(C)C(O)c1ccc(O)cc1 (stereo unspecified) (plate: M 3-4) | inactive: 0.0946
24 | O=c1ccc2c(O)c3ccoc3cc2o1 (plate: M 19-20) | inactive: -0.189
25 | C/C=C(/C)C(=O)O[C@H]1CC[C@@]2(C)[C@@H]3CC[C@H]4[C@]5(O)C[C@H](O)[C@@]6(O)[C@@H](CN7C[C@@H](C)CC[C@H]7[C@@]6(C)O)[C@]5(O)C[C@@]42O[C@]13O (plate: M 19-20) | inactive: 0.0528
26 | CCCC(C)C1(CC)C(=O)NC(=S)NC1=O (stereo unspecified) (plate: M 13-14) | inactive: 0.146
27 | COc1cc([C@@H]2c3cc4c(cc3[C@H](O)[C@H]3COC(=O)[C@@H]23)OCO4)cc(OC)c1OC (plate: M 23-24) | inactive: 0.554
28 | O=C1C=C2C=C[C@@H]3C[C@@]2(O1)[C@H]1CCCCN31 (plate: M 19-20) | inactive: 0.258
29 | CC(C)=CC1C(C(=O)OCc2cccc(Oc3ccccc3)c2)C1(C)C (stereo unspecified) (plate: M 23-24) | inactive: 0.628
30 | C[CH2][Hg][S]c1ccccc1C(=O)[O-].[Na+] (plate: M 5-6) | inactive: -1.38
31 | CC1(C)C(=O)C=C[C@]2(C)[C@H]3CC[C@@]4(C)[C@H](c5ccoc5)OC(=O)[C@H]5O[C@]54[C@]3(C)[C@H](O)C[C@@H]12 (plate: M 13-14) | inactive: 0.54
32 | CC[C@H](C)[C@H]1O[C@]2(C=C[C@@H]1C)C[C@@H]1C[C@@H](C/C=C(\C)[C@@H](O[C@H]3C[C@H](OC)[C@@H](O[C@H]4C[C@H](OC)[C@@H](O)[C@H](C)O4)[C@H](C)O3)[C@@H](C)/C=C/C=C3\CO[C@@H]4[C@H](O)C(C)=C[C@@H](C(=O)O1)[C@]34O)O2.CO[C@H]1C[C@H](O[C@H]2[C@H](C)O[C@@H](O[C@@H]3/C(C)=C/C[C@@H]4C[C@@H](C[C@]5(C=C[C@H](C)[C@@H](C(C)C)O5)O4)OC(=O)[C@@H]4C=C(C)[C@@H](O)[C@H]5OC/C(=C\C=C\[C@@H]3C)[C@]54O)C[C@@H]2OC)O[C@@H](C)[C@@H]1O (plate: M 7-8) | inactive: -0.136
33 | Nc1ccncc1 (plate: M 7-8) | inactive: 0.383
34 | COC(=O)[C@@H]1C[C@H](OC(C)=O)C(=O)[C@H]2[C@@]1(C)CC[C@H]1C(=O)O[C@H](c3ccoc3)C[C@]21C (plate: M 19-20) | inactive: 0.411
35 | CC[C@@]1(O)C[C@H](O)c2c(cc3c(c2O)C(=O)c2c(O)ccc(O)c2C3=O)[C@H]1C(=O)OC (plate: M 15-16) | inactive: 0.521
36 | O=C(O)CCCc1ccc(N(CCCl)CCCl)cc1 (plate: M 1-2) | inactive: 0.317

Single values from the list:
Entry for `CC1=C(O)C(=O)C=C2C1=CC=C1[C@@]2(C)CC[C@@]2(C)[C@@H]3C[C@](C)(C(=O)O)CC[C@]3(C)CC[C@]12C` (plate: M 15-16) under tryptophan fluorescence intensity z-score: inactive: 0.156
Entry for `C[C@H]1CC[C@@]2(NC1)O[C@H]1C[C@H]3[C@@H]4CC[C@H]5C[C@@H](O)CC[C@]5(C)[C@H]4CC[C@]3(C)[C@H]1[C@@H]2C` (plate: M 13-14) under tryptophan fluorescence intensity z-score: inactive: 0.621
